Results published in publication PMC11845518.
These are yes or no findings as the source states them, for the method shown. Binding seen in cells or lysates may run through a third protein. Some results given as binding are weak or reduced against the parent protein; the word gives no strength. For part of these data: Sequences can lack the tags named with a protein. Each block holds one molecule with its values, some of them ahead of it.

By UniProt entry, the sequences of proteins in these tests, tags left out. Where a name states a change or a piece, a line headed by the entry shows the natural chain unless it says otherwise.
UniProt Q9H792: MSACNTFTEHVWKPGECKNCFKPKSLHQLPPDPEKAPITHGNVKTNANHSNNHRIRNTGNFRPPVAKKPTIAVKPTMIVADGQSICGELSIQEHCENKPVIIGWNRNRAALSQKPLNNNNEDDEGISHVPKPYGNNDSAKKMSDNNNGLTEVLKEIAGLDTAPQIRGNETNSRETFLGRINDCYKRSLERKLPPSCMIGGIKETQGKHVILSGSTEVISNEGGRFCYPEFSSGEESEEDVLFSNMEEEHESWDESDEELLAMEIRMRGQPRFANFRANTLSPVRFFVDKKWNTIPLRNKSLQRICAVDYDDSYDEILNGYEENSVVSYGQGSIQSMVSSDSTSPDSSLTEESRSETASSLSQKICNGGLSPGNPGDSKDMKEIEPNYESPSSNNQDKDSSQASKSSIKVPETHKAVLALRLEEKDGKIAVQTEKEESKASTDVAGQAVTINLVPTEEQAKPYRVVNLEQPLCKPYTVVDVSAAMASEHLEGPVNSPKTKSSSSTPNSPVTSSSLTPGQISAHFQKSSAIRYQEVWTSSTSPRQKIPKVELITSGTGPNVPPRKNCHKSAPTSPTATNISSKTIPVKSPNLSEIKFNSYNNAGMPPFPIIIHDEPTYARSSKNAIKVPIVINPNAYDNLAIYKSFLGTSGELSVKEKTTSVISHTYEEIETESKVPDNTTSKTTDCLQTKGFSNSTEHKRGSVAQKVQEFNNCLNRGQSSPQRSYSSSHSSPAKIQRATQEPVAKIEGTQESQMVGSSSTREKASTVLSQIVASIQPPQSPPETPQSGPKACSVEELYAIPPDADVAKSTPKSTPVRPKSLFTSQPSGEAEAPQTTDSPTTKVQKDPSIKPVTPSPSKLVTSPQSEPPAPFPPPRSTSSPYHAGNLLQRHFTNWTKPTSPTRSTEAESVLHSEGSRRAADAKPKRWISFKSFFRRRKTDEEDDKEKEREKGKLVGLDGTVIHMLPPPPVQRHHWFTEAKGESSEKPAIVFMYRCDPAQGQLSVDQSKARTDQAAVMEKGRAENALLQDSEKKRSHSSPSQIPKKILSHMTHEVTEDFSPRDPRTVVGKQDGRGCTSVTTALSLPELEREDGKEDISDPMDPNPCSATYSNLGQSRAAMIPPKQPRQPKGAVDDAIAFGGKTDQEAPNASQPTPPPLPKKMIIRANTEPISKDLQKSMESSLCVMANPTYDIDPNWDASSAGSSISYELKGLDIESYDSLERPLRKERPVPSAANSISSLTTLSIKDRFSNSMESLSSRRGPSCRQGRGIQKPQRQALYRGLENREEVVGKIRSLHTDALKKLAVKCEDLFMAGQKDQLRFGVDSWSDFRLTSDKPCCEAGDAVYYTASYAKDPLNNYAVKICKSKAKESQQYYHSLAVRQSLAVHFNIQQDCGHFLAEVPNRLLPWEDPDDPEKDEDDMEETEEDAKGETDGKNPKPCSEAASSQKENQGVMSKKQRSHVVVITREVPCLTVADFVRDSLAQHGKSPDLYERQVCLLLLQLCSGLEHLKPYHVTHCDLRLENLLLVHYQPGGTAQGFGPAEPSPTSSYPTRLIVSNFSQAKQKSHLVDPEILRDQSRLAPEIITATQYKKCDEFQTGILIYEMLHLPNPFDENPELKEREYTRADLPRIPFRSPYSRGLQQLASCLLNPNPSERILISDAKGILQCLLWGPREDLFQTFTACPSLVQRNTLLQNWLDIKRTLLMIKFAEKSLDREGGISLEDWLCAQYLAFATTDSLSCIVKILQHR
UniProt Q13555: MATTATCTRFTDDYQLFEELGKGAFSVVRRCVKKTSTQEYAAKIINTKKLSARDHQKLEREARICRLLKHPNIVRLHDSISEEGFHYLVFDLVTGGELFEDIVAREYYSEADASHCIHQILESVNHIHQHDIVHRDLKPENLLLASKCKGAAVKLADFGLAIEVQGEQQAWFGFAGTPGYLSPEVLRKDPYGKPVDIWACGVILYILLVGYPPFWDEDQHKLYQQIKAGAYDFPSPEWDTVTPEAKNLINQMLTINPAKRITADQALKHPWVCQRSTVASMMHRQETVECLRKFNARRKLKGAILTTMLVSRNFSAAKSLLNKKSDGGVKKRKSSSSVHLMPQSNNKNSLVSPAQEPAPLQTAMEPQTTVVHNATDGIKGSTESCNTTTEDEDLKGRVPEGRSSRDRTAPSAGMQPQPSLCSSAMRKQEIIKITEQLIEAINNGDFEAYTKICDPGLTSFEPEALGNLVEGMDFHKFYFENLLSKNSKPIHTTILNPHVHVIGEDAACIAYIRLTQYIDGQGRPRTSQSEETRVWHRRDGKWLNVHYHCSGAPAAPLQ
UniProt P46109: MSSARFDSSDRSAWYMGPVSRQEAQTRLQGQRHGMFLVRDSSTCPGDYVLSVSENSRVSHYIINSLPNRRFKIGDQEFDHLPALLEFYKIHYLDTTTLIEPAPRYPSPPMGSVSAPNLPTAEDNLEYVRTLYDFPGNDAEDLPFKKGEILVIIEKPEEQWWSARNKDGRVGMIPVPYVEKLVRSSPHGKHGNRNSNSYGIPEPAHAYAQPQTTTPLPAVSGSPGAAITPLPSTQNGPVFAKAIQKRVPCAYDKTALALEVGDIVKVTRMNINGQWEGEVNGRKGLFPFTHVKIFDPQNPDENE
UniProt Q13557: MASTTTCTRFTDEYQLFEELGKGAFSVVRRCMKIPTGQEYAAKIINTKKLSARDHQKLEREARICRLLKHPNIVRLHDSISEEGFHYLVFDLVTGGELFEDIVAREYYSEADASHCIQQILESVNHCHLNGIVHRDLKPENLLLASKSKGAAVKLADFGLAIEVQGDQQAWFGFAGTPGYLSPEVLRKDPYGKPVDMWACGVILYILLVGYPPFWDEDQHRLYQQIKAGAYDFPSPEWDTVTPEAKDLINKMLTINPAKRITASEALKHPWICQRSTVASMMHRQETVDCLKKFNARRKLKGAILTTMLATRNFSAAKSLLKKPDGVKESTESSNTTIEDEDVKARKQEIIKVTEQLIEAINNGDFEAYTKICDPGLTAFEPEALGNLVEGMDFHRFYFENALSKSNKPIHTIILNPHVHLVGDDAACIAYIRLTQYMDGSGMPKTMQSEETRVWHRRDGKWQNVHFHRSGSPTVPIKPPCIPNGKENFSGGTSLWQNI
UniProt P62993: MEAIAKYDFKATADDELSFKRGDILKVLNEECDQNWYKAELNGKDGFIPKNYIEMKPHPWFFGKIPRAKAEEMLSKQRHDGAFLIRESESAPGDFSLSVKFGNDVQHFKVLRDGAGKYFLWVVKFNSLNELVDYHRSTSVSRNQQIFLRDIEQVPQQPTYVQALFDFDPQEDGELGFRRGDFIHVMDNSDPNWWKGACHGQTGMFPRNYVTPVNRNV

Experiments:
[1] = biological target: Flag-tagged PEAK1 R297A/L301A/R303A (human) (UniProt Q9H792); experiment: co-IP; Western blotting of PEAK1 IPs, WT against AAA and EE CIM mutants (Supplementary Fig. 7B–D); cell line not shown
[2] = biological target: Flag-tagged PEAK1 R297E/R303E (human) (UniProt Q9H792); experiment: as above
[3] = biological target: Flag-tagged WT PEAK1 (MDA-MB-231) (human) (UniProt Q9H792); experiment: as above
[4] = biological target: Flag-tagged PEAK1 WT (HEK293T) (human) (UniProt Q9H792); experiment: co-IP; Flag-tagged PEAK1 and deletion mutants expressed in HEK293T; anti-FLAG M2 agarose IP from lysate (normal lysis buffer), 4 °C 2–4 h; Western blot for CAMK2D or CAMK2G
[5] = biological target: V1- or V2-labelled fusion of PEAK1 (human) (UniProt Q9H792); experiment: split reporter; BiCAP: V1- and V2-labelled PEAK1/PEAK2 co-expressed in HEK293T; dimers with recombined Venus purified on GFP-Trap_A beads
[6] = biological target: PEAK1, endogenous in MDA-MB-231 (human (endogenous in MDA-MB-231)) (UniProt Q9H792); experiment: proximity ligation; Duolink PLA on fixed, permeabilised MDA-MB-231 cells, endogenous proteins; si-PEAK1, si-PEAK2 or si-Control
[7] = biological target: T1, PEAK2, endogenous in MDA-MB-231 (human (endogenous in MDA-MB-231)) (UniProt Q86YV5); experiment: as above
T1 sequence: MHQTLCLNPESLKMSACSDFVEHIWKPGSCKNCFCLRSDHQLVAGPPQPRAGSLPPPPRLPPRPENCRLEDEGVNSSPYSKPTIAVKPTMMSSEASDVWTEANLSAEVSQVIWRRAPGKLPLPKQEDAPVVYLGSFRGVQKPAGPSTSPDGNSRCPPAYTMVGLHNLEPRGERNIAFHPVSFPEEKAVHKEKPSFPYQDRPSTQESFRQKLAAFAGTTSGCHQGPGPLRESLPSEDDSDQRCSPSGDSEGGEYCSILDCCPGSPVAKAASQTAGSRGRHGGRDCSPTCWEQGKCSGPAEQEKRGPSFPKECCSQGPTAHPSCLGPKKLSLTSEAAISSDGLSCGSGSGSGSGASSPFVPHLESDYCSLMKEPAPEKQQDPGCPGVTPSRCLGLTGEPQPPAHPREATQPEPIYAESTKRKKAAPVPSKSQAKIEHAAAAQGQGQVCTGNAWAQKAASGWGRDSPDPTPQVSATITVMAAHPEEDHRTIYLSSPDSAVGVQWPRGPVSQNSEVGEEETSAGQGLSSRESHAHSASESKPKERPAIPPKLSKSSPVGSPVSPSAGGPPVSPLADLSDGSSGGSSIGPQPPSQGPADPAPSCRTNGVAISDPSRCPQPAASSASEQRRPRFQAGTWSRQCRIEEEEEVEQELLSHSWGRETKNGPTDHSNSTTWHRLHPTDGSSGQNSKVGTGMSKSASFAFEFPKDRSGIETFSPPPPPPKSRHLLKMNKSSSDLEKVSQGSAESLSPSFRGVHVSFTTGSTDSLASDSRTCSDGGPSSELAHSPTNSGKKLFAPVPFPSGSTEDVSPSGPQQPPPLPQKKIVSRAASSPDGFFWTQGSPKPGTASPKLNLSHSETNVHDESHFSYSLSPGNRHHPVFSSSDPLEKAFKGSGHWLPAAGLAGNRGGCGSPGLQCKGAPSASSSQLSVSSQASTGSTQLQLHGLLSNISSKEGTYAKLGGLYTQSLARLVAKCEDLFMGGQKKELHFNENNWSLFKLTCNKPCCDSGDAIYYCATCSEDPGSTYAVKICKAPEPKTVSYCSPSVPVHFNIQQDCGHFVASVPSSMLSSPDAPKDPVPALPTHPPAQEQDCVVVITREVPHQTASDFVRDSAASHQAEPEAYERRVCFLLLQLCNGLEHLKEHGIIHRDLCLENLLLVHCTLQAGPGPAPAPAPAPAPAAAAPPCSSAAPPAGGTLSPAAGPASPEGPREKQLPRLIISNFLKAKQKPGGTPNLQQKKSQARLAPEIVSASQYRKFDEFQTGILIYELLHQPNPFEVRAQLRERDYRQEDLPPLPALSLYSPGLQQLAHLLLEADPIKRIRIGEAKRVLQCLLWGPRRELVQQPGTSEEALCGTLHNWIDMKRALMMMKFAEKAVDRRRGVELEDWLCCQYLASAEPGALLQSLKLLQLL

[8] = biological target: V1- or V2-labelled fusion of PEAK2 (UniProt Q86YV5); experiment: split reporter; BiCAP: V1- and V2-labelled PEAK1/PEAK2 co-expressed in HEK293T; dimers with recombined Venus purified on GFP-Trap_A beads
[9] = biological target: Flag-tagged WT PEAK1 (MDA-MB-231) (human) (UniProt Q9H792); experiment: co-IP; Flag-tagged WT PEAK1 or mutants expressed in MDA-MB-231 cells; association with endogenous PEAK2 by IP/Western

binding [4]: binds
Molecule: calcium/calmodulin-dependent protein kinase 2 (CAMK2)G, endogenous in HEK293T (from UniProt Q13555 1-558) (enzyme)

binding [5]: binds
Molecule: V1- or V2-labelled fusion of PEAK1 (from UniProt Q9H792 1-1746)

The remaining lines, values behind:

Molecule: Crk-L (from UniProt P46109 1-303)
binding [1]: binds
binding [2]: binds
binding [3]: binds

Molecule: CAMK2D, endogenous in MDA-MB-231 (from UniProt Q13557 1-499) (enzyme)
binding [6]: binds
binding [7]: binds

Molecule: CAMK2G, endogenous in MDA-MB-231 (from UniProt Q13555 1-558) (enzyme)
binding [6]: binds
binding [7]: binds

Molecule: Grb2 (partner of PEAK1 in Supplementary Fig. 7B) (from UniProt P62993 1-217)
binding [1]: binds
binding [2]: binds
binding [3]: binds

B1: V1- or V2-labelled fusion of PEAK2 (protein, UniProt Q86YV5 1-1406)
chain: MHQTLCLNPESLKMSACSDFVEHIWKPGSCKNCFCLRSDHQLVAGPPQPRAGSLPPPPRLPPRPENCRLEDEGVNSSPYSKPTIAVKPTMMSSEASDVWTEANLSAEVSQVIWRRAPGKLPLPKQEDAPVVYLGSFRGVQKPAGPSTSPDGNSRCPPAYTMVGLHNLEPRGERNIAFHPVSFPEEKAVHKEKPSFPYQDRPSTQESFRQKLAAFAGTTSGCHQGPGPLRESLPSEDDSDQRCSPSGDSEGGEYCSILDCCPGSPVAKAASQTAGSRGRHGGRDCSPTCWEQGKCSGPAEQEKRGPSFPKECCSQGPTAHPSCLGPKKLSLTSEAAISSDGLSCGSGSGSGSGASSPFVPHLESDYCSLMKEPAPEKQQDPGCPGVTPSRCLGLTGEPQPPAHPREATQPEPIYAESTKRKKAAPVPSKSQAKIEHAAAAQGQGQVCTGNAWAQKAASGWGRDSPDPTPQVSATITVMAAHPEEDHRTIYLSSPDSAVGVQWPRGPVSQNSEVGEEETSAGQGLSSRESHAHSASESKPKERPAIPPKLSKSSPVGSPVSPSAGGPPVSPLADLSDGSSGGSSIGPQPPSQGPADPAPSCRTNGVAISDPSRCPQPAASSASEQRRPRFQAGTWSRQCRIEEEEEVEQELLSHSWGRETKNGPTDHSNSTTWHRLHPTDGSSGQNSKVGTGMSKSASFAFEFPKDRSGIETFSPPPPPPKSRHLLKMNKSSSDLEKVSQGSAESLSPSFRGVHVSFTTGSTDSLASDSRTCSDGGPSSELAHSPTNSGKKLFAPVPFPSGSTEDVSPSGPQQPPPLPQKKIVSRAASSPDGFFWTQGSPKPGTASPKLNLSHSETNVHDESHFSYSLSPGNRHHPVFSSSDPLEKAFKGSGHWLPAAGLAGNRGGCGSPGLQCKGAPSASSSQLSVSSQASTGSTQLQLHGLLSNISSKEGTYAKLGGLYTQSLARLVAKCEDLFMGGQKKELHFNENNWSLFKLTCNKPCCDSGDAIYYCATCSEDPGSTYAVKICKAPEPKTVSYCSPSVPVHFNIQQDCGHFVASVPSSMLSSPDAPKDPVPALPTHPPAQEQDCVVVITREVPHQTASDFVRDSAASHQAEPEAYERRVCFLLLQLCNGLEHLKEHGIIHRDLCLENLLLVHCTLQAGPGPAPAPAPAPAPAAAAPPCSSAAPPAGGTLSPAAGPASPEGPREKQLPRLIISNFLKAKQKPGGTPNLQQKKSQARLAPEIVSASQYRKFDEFQTGILIYELLHQPNPFEVRAQLRERDYRQEDLPPLPALSLYSPGLQQLAHLLLEADPIKRIRIGEAKRVLQCLLWGPRRELVQQPGTSEEALCGTLHNWIDMKRALMMMKFAEKAVDRRRGVELEDWLCCQYLASAEPGALLQSLKLLQLL
binding [5]: binds
binding [8]: binds

B2: PEAK2, endogenous in MDA-MB-231 (protein, UniProt Q86YV5 1-1406)
chain: MHQTLCLNPESLKMSACSDFVEHIWKPGSCKNCFCLRSDHQLVAGPPQPRAGSLPPPPRLPPRPENCRLEDEGVNSSPYSKPTIAVKPTMMSSEASDVWTEANLSAEVSQVIWRRAPGKLPLPKQEDAPVVYLGSFRGVQKPAGPSTSPDGNSRCPPAYTMVGLHNLEPRGERNIAFHPVSFPEEKAVHKEKPSFPYQDRPSTQESFRQKLAAFAGTTSGCHQGPGPLRESLPSEDDSDQRCSPSGDSEGGEYCSILDCCPGSPVAKAASQTAGSRGRHGGRDCSPTCWEQGKCSGPAEQEKRGPSFPKECCSQGPTAHPSCLGPKKLSLTSEAAISSDGLSCGSGSGSGSGASSPFVPHLESDYCSLMKEPAPEKQQDPGCPGVTPSRCLGLTGEPQPPAHPREATQPEPIYAESTKRKKAAPVPSKSQAKIEHAAAAQGQGQVCTGNAWAQKAASGWGRDSPDPTPQVSATITVMAAHPEEDHRTIYLSSPDSAVGVQWPRGPVSQNSEVGEEETSAGQGLSSRESHAHSASESKPKERPAIPPKLSKSSPVGSPVSPSAGGPPVSPLADLSDGSSGGSSIGPQPPSQGPADPAPSCRTNGVAISDPSRCPQPAASSASEQRRPRFQAGTWSRQCRIEEEEEVEQELLSHSWGRETKNGPTDHSNSTTWHRLHPTDGSSGQNSKVGTGMSKSASFAFEFPKDRSGIETFSPPPPPPKSRHLLKMNKSSSDLEKVSQGSAESLSPSFRGVHVSFTTGSTDSLASDSRTCSDGGPSSELAHSPTNSGKKLFAPVPFPSGSTEDVSPSGPQQPPPLPQKKIVSRAASSPDGFFWTQGSPKPGTASPKLNLSHSETNVHDESHFSYSLSPGNRHHPVFSSSDPLEKAFKGSGHWLPAAGLAGNRGGCGSPGLQCKGAPSASSSQLSVSSQASTGSTQLQLHGLLSNISSKEGTYAKLGGLYTQSLARLVAKCEDLFMGGQKKELHFNENNWSLFKLTCNKPCCDSGDAIYYCATCSEDPGSTYAVKICKAPEPKTVSYCSPSVPVHFNIQQDCGHFVASVPSSMLSSPDAPKDPVPALPTHPPAQEQDCVVVITREVPHQTASDFVRDSAASHQAEPEAYERRVCFLLLQLCNGLEHLKEHGIIHRDLCLENLLLVHCTLQAGPGPAPAPAPAPAPAAAAPPCSSAAPPAGGTLSPAAGPASPEGPREKQLPRLIISNFLKAKQKPGGTPNLQQKKSQARLAPEIVSASQYRKFDEFQTGILIYELLHQPNPFEVRAQLRERDYRQEDLPPLPALSLYSPGLQQLAHLLLEADPIKRIRIGEAKRVLQCLLWGPRRELVQQPGTSEEALCGTLHNWIDMKRALMMMKFAEKAVDRRRGVELEDWLCCQYLASAEPGALLQSLKLLQLL
binding [9]: binds
